Test results taken from paper PMC3621763, “Adenoviral Gene Transfer of PLD1-D4 Enhances Insulin Sensitivity in Mice by Disrupting Phospholipase D1 Interaction with PED/PEA-15” (PLoS ONE, 2013).
These are yes or no findings as the source states them, for the method shown. Binding seen in cells or lysates may run through a third protein. Some entries that bind do so weakly or less than the wild type.

Amino acid sequences for entries named in this document (tags omitted).
UniProt Q15121: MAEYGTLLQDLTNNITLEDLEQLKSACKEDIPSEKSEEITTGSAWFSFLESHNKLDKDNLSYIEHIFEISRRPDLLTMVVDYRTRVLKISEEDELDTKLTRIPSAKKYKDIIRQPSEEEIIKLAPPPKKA
UniProt Q62048: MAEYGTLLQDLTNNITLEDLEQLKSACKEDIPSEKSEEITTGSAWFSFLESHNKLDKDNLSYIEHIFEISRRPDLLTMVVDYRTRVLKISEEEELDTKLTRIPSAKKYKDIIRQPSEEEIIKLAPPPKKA

Assays:
[1] = target: PED/PEA-15 over-expressed in transgenic Tg_(Ped/pea-15) mice (UniProt Q15121); test: co-IP; tibialis skeletal muscle homogenate of Tg_(Ped/pea-15) mice one week after infection with Ad-D4 or Ad-GFP; IP with anti-PED/PEA-15 antibody, blot with anti-PLD1
[2] = target: PED/PEA-15 over-expressed in transgenic Tg_(Ped/pea-15) mice (UniProt Q15121); test: co-IP; tibialis skeletal muscle lysate (0.5-1 mg) of Wt and Tg_(Ped/pea-15) mice, precleared with pre-immune serum, anti-PED/PEA-15 antibody overnight at 4°C, protein A sepharose, blot with anti-PLD1
[3] = target: phosphoprotein enriched in diabetes/phosphoprotein enriched in astrocytes (PED/PEA-15), endogenous in wild type mice (mouse (endogenous in tibialis skeletal muscle)) (UniProt Q62048); test: as above

Measured: binding

B1: Phospholipase D1 (PLD1), endogenous in mouse skeletal muscle (enzyme, UniProt Q9Z280 1-1074, looked up)
chain: MSLKSETRVNTSTLQKIAADMSNLIENLDTRELHFEGEEVEYDASPGDPKAQEGCIPFSSIYNTQGFKEPNIQTYLSGCPIKAQVLEVERFTSTSRVPSINLYTIELTHGEFTWQVKRKFKHFQEFHRELLKYKAFIRIPIPTKRHTFRRQNVKEEPREMPSLPRSSENAIQEEQFFGRRKQLEDYLTKILKMPMYRNYHATTEFLDVSQLSFIHDLGPKGLEGMIMKRSGGHRIPGVNCCGHGRACYRWSKRWLIVKDSFLLYMKPDSGAIAFVLLVDKEFRVKVGRKETETKYGLRIDNLSRTLILKCNSYRHARWWGGAIEEFIRKHGADFLKDHRFGSYAALHENTLAKWYVNAKGYFEDIANAMEEASEEIFITDWWLSPEIFLKRPVVEGNRWRLDCILKRKAQQGVRIFIMLYKEVELALGINSEYSKRTLMRLHPNIKVMRHPDHVSSSVYLWAHHEKLVIIDQSVAFVGGIDLAYGRWDDNEHRLTDVGSVKRVTSGLSLGSLTAASVESMESLSLKDKHEFHKKEPISKIVDETDMKLKGIGKSRKFSKFSLYRQLHRHHLHNADSISSIDSTSSYFSHCRSHQNLIHGLKPHLKLFHPSSESEQGLTRHSTDTGSIRSVQTGVGELHGETRFWHGKDYCNFVFKDWVQLDKPFADFIDRYSTPRMPWHDIGSVVHGKAARDVARHFIQRWNFTKIMKPKYRSLSYPFLLPKSQATAHELRYQVPGAVPAKVQLLRSAADWSAGIKHHEESIHAAYIHVIENSKHYIYIENQFFISCADDKVVFNKVGDRIAQRILKAHREGQRYRVYIVIPLLPGFEGDISTGGGNALQAIMHFNYRTMCRGESSILEQLKPELGNKWINYISFCGLRTHAELEGNLVTELIYVHSKLLIADDNTVIIGSANINDRSMLGKRDSEMAVIVQDTETVPSVMDGKEYQAGRFARDLRLECFRLVLGYLSDPSEDLQDPVSDKFFKEIWVSTAARNATIYDKVFRCLPNDEVHNLIQLRDFINKPILAKEDALRAEEELRKIRGFLVQFPLYFLSEENLLPSVGTKEAIVPMEVWT
notes: Phospholipase D1, endogenous protein of mouse skeletal muscle; Detected by blot with an anti-PLD1 antibody in the anti-PED/PEA-15 precipitate; source: endogenous, tibialis skeletal muscle lysate of Wt and Tg_(Ped/pea-15) mice
binds: all assays above
